PubChem BioAssay AID493246 | Drosophila RNAi Screening Center, 2011

- Assay: 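Genome-wide search for dsRNAs that reduce cell number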 (primary screen)
- Cells: Drosophila Kc and S2R+ cells
- Reagents: long dsRNA against Drosophila genes
- Read-out: 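Cell number per well after knock-down, printed as raw plate values; calls were based on per-plate z-scores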
- Scale: Kc cell number and S2R+ cell number: higher = more cells remaining
- Rule for the call: 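Counted as a hit if cell number falls by a z-score of at least 3 within its plate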
The deposit covers about 21,000 reagents; below is an unselected part of those with a known target gene and a result. Over the whole deposit, 429 (2%) were called active. 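Values are raw and not normalised between plates; calls rest on per-plate z-scores that were not deposited.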 A plus sign joins genes that one reagent is predicted to hit. Not stated in the record: the amount of reagent, the time to read-out.

gene,DRSC id,"Kc cell number, rep 1","Kc cell number, rep 2","S2R+ cell number, rep 1","S2R+ cell number, rep 2",Call
CG7840,DRSC03075,1.25e6,1.44e6,5.67e5,7.80e5,inactive
Mgat2,DRSC16347,4.92e5,,7.96e5,,inactive
pll (pelle),DRSC17026,4.83e5,,8.40e5,,inactive
CG15549,DRSC15087,1.55e6,1.55e6,1.05e6,1.18e6,inactive
Lip4 (Lipase 4),DRSC02930,1.64e6,1.73e6,1.30e6,1.56e6,inactive
CG4968,DRSC02794,1.58e6,1.63e6,1.11e6,1.21e6,inactive
CG14259,DRSC14754,1.43e6,1.50e6,1.04e6,1.13e6,inactive
CG31262,DRSC13216,1.89e6,1.80e6,1.16e6,1.34e6,inactive
CG8321,DRSC07148,1.42e6,1.44e6,1.10e6,1.10e6,inactive
lncRNA:CR32658 (long non-coding RNA:CR32658),DRSC19402,1.67e6,1.53e6,1.11e6,1.23e6,inactive
CG15394,DRSC00408,1.51e6,1.55e6,1.04e6,1.23e6,inactive
miple2 (midkine and pleiotrophin 2),DRSC08723,1.25e6,1.26e6,1.08e6,1.24e6,inactive
CG3092,DRSC04336,1.29e6,1.42e6,1.20e6,1.19e6,inactive
CG42272,DRSC08766,1.58e6,1.59e6,1.07e6,1.23e6,inactive
CG10064,DRSC09689,1.49e6,1.32e6,1.26e6,1.25e6,inactive
lace,DRSC03564,1.61e6,1.65e6,1.41e6,1.33e6,inactive
Cyp6t1 (Cytochrome P450 6t1),DRSC20564,1.50e6,1.53e6,1.06e6,1.16e6,inactive
topi (matotopetli),DRSC16431,1.65e6,1.64e6,1.25e6,1.36e6,inactive
Obp69a (Odorant-binding protein 69a),DRSC11247,1.68e6,1.69e6,1.23e6,1.32e6,inactive
Rcd-1r + CG13102,DRSC03266,1.66e6,1.65e6,1.15e6,1.30e6,inactive
Gr39a (Gustatory receptor 39a),DRSC01841,5.50e5,,8.82e5,,inactive
Gr39a (Gustatory receptor 39a),DRSC01842,5.59e5,,8.76e5,,inactive
Prosap,DRSC06382,1.64e6,1.76e6,1.44e6,1.64e6,inactive
Prosap,DRSC07081,1.40e6,1.46e6,1.11e6,1.15e6,inactive
lncRNA:CR32657 (long non-coding RNA:CR32657),DRSC19403,1.58e6,1.51e6,1.10e6,1.23e6,inactive

The list goes on, starting with the last 7 of the part before.
gene,DRSC id,"Kc cell number, rep 1","Kc cell number, rep 2","S2R+ cell number, rep 1","S2R+ cell number, rep 2",Call
Obp69a (Odorant-binding protein 69a),DRSC11247,1.68e6,1.69e6,1.23e6,1.32e6,inactive
Rcd-1r + CG13102,DRSC03266,1.66e6,1.65e6,1.15e6,1.30e6,inactive
Gr39a (Gustatory receptor 39a),DRSC01841,5.50e5,,8.82e5,,inactive
Gr39a (Gustatory receptor 39a),DRSC01842,5.59e5,,8.76e5,,inactive
Prosap,DRSC06382,1.64e6,1.76e6,1.44e6,1.64e6,inactive
Prosap,DRSC07081,1.40e6,1.46e6,1.11e6,1.15e6,inactive
lncRNA:CR32657 (long non-coding RNA:CR32657),DRSC19403,1.58e6,1.51e6,1.10e6,1.23e6,inactive
Shrm (Shroom),DRSC06437,1.49e6,1.54e6,1.19e6,1.22e6,inactive
Shrm (Shroom),DRSC06438,1.53e6,1.48e6,1.13e6,1.15e6,inactive
Shrm (Shroom),DRSC07221,1.43e6,1.45e6,1.16e6,1.24e6,inactive
Mis12,DRSC10299,1.65e6,1.62e6,1.13e6,1.19e6,inactive
CG13323,DRSC06360,1.50e6,1.46e6,1.21e6,1.28e6,inactive
unpg (unplugged),DRSC07713,1.48e6,1.52e6,1.24e6,1.32e6,inactive
GstE7 (Glutathione S transferase E7),DRSC06677,1.44e6,1.48e6,1.27e6,1.26e6,inactive
Tim13,DRSC09848,1.27e6,1.42e6,1.24e6,1.34e6,inactive
Phf5a (PHD finger protein 5a),DRSC03261,1.50e6,1.33e6,8.93e5,1.02e6,inactive
disco (disconnected),DRSC20323,1.70e6,1.71e6,1.20e6,1.37e6,inactive
CG6083,DRSC10580,1.31e6,1.46e6,1.19e6,1.26e6,inactive
CG34276,DRSC15811,1.25e6,1.30e6,1.13e6,1.30e6,inactive
Frq2 (Frequenin 2),DRSC20245,1.45e6,1.44e6,1.03e6,1.15e6,inactive
sca (scabrous),DRSC07677,1.63e6,1.64e6,1.12e6,1.30e6,inactive
CG8031,DRSC16364,1.65e6,1.71e6,1.28e6,1.35e6,inactive
ZC3H3,DRSC10696,8.52e5,1.12e6,4.92e5,6.17e5,active
Atx2 (Ataxin-2),DRSC15727,3.25e5,6.12e5,5.58e5,4.46e5,active
PPO1 (Prophenoloxidase 1),DRSC05929,1.43e6,1.53e6,1.23e6,1.23e6,inactive
endos (endosulfine),DRSC10658,1.68e6,1.71e6,1.27e6,1.27e6,inactive
CG3397,DRSC15487,1.41e6,1.54e6,1.18e6,1.27e6,inactive
Gel (Gelsolin),DRSC12350,1.73e6,1.67e6,1.26e6,1.36e6,inactive
ACXA (Adenylyl cyclase X A),DRSC00844,1.55e6,1.59e6,1.24e6,1.39e6,inactive
CG32100,DRSC09725,1.43e6,1.59e6,1.24e6,1.34e6,inactive
CG32100,DRSC10331,1.40e6,1.57e6,1.22e6,1.30e6,inactive
Hmu (Hemomucin),DRSC16705,1.54e6,1.58e6,1.04e6,1.19e6,inactive
Hk (Hyperkinetic),DRSC17638,1.13e6,1.21e6,8.49e5,8.70e5,inactive
Hk (Hyperkinetic),DRSC18674,1.55e6,1.52e6,9.31e5,1.03e6,inactive
CG34029,DRSC03909,5.33e5,,8.46e5,,inactive
Rb97D (Ribonuclear protein at 97D),DRSC16815,1.59e6,1.63e6,1.01e6,1.12e6,inactive
CG12347,DRSC14502,1.53e6,1.50e6,1.06e6,1.15e6,inactive
CG17233,DRSC10259,1.32e6,1.39e6,9.81e5,1.05e6,inactive
CG5056,DRSC02808,1.47e6,1.55e6,1.25e6,1.38e6,inactive
TyrRII (Tyramine receptor II),DRSC15150,1.27e6,1.37e6,8.26e5,9.68e5,inactive
CG34280,DRSC13229,1.63e6,1.67e6,1.03e6,1.21e6,inactive
CG5001,DRSC00673,1.59e6,1.64e6,9.27e5,1.07e6,inactive
GCS1 (Glucosidase 1),DRSC19744,5.43e5,,8.61e5,,inactive
CR33317 (pseudo),DRSC02653,1.56e6,1.68e6,1.37e6,4.01e5,inactive
mia (meiosis I arrest),DRSC12137,1.56e6,1.64e6,1.14e6,1.17e6,inactive
CG31342,DRSC15349,1.73e6,1.87e6,1.49e6,1.55e6,inactive
CG31342,DRSC16246,1.42e6,1.31e6,9.93e5,1.04e6,inactive
SMC3 (Structural maintenance of chromosomes 3),DRSC20227,1.47e6,1.41e6,9.97e5,1.07e6,inactive
ea (easter),DRSC16939,1.24e6,1.32e6,1.16e6,1.26e6,inactive
CG4294,DRSC04460,1.26e6,1.31e6,9.82e5,1.06e6,inactive
mat (materazzi),DRSC08376,1.62e6,1.40e6,1.03e6,1.34e6,inactive
CG34290,DRSC13660,1.25e6,1.43e6,1.14e6,8.96e5,inactive
Cyp313a5 (Cytochrome P450 313a5),DRSC16628,1.42e6,1.49e6,1.20e6,1.32e6,inactive
Jwa,DRSC02048,1.31e6,1.45e6,1.33e6,1.27e6,inactive
CG5895,DRSC10554,1.44e6,1.79e6,1.40e6,1.58e6,inactive
sel (seele),DRSC06232,1.49e6,1.48e6,1.07e6,1.18e6,inactive
Cnep1r2 (CTD nuclear envelope phosphatase 1 regulatory subunit 2),DRSC10950,1.56e6,1.52e6,1.26e6,1.18e6,inactive
